Paper PMC8373069
No constants are given. Whether binding was seen depends on the method and setting. Some results given as binding are weak or reduced against the parent protein; the word gives no strength.

The chains behind the UniProt entries cited, without tags or fusion partners.
UniProt Q16531: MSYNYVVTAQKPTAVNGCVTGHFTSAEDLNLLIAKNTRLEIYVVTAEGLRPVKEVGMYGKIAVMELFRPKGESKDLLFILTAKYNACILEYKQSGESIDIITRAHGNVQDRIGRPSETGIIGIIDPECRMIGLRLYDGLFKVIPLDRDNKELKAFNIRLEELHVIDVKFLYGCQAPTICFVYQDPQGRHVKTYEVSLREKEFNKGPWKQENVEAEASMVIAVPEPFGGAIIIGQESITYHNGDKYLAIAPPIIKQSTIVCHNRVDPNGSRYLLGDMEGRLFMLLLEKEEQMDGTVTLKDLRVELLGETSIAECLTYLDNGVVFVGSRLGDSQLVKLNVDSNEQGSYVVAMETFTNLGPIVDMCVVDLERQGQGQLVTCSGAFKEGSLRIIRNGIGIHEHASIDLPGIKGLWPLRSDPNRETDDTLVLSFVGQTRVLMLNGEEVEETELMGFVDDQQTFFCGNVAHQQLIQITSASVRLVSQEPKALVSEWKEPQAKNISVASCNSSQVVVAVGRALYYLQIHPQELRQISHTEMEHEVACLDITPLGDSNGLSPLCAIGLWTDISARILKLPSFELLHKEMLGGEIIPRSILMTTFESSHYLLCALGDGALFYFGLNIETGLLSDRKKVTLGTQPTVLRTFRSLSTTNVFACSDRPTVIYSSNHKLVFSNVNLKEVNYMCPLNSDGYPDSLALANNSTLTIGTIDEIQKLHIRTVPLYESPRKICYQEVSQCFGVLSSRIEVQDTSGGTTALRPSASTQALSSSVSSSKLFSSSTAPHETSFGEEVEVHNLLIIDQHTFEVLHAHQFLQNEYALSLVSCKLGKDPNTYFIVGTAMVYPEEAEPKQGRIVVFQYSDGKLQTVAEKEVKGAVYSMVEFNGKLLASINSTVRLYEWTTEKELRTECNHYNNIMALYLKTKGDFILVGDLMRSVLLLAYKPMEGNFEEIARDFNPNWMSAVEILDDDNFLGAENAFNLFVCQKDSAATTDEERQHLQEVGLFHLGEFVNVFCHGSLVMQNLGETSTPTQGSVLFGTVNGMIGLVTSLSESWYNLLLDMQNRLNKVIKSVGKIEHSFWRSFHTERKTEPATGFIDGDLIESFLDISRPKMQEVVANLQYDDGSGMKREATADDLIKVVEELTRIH
UniProt Q92466: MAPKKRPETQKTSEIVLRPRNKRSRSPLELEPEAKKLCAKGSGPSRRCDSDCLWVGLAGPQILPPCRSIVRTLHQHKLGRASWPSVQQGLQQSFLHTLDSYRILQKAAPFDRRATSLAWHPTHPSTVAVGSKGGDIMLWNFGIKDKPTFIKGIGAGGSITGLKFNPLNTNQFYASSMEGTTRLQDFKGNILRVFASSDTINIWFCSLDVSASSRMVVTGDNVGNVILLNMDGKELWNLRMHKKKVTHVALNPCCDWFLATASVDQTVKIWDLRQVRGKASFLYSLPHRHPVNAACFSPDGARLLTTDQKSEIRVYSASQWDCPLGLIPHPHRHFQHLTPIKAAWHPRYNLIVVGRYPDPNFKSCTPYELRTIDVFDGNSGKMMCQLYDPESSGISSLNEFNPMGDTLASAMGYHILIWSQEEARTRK

Target: His6-DDB1 (UniProt Q16531)
Assay: co-purification (His-Trap, anti-FLAG affinity gel, SEC); His6-DDB1 and DDB2-Flag co-expressed in Sf9 cells, purified in turn on Ni2+ His-Trap, anti-FLAG M2 gel and Superdex 200

binding: binds
Substance: DDB2-Flag (from UniProt Q92466 1-427)
